Our source for the IC50 and Kd values is doi:10.1101/2025.08.03.668247.

By UniProt entry, the sequences of proteins in these tests, tags left out. Where a name states a change or a piece, a line headed by the entry shows the natural chain unless it says otherwise.
UniProt Q9W1K4: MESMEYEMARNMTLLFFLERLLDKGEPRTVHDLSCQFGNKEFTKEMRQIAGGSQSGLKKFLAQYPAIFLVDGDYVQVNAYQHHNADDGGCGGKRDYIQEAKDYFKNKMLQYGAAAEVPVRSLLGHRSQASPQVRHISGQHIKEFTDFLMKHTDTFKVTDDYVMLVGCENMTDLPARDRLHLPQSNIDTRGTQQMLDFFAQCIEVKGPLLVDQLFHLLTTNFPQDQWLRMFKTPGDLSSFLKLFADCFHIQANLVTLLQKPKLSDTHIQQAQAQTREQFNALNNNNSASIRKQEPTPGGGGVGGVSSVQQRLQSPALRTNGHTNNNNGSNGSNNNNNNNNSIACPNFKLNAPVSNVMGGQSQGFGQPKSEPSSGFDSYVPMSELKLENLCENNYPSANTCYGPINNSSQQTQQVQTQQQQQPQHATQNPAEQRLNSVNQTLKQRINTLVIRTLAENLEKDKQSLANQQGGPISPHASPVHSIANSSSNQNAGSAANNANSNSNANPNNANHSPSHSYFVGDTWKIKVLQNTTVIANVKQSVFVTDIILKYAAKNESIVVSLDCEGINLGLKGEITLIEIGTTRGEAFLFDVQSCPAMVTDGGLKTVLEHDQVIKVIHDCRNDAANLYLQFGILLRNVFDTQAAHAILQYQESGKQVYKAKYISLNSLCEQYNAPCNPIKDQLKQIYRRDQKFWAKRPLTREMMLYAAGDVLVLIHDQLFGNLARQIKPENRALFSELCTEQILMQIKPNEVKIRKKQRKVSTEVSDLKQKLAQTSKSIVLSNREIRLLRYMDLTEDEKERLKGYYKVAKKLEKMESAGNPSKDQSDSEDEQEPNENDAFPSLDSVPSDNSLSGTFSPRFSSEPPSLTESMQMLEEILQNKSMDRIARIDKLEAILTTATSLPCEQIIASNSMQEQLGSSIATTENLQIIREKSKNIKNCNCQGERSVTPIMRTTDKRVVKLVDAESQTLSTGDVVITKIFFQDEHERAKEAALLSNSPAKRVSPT

The target in data set [1] is GST-Egl512-819 (Drosophila melanogaster) (UniProt Q9W1K4). The data set can be described thus: competition with a labelled probe. The conditions noted are these: vs FAM-K10 TLS; residues 512-819.
The target in data set [2] is EXO (Egl512-751) (Drosophila melanogaster) (UniProt Q9W1K4). As to the kind of experiment: fluorescence anisotropy. The conditions noted are these: no binding detected up to 5 uM; residues 512-751. (In general: Polarisation of emitted light reports the rotation of a fluorescent probe.)
Data set [3] concerns the target Egl512-819 untagged (Drosophila melanogaster) (UniProt Q9W1K4). The data set can be described thus: fluorescence anisotropy. The settings on record: untagged, value assigned from figure text; residues 512-819.

For some assays here: For at least one entry, the source does not settle the construct or the ends of the probe.

In data set [1], “UGAGUGCCAGAAGCUGCCUC / GAGGCAGCUUCUGGCACUCA [dsRNA]” showed an IC50 of 0.102 µM. The same measure, in the same setting: to “CUUGAUUGUAUUUUUAAAUUAAUUCUUAAAAAUACAAUUAAG [K10-Delta b1b2]” belongs 0.064 µM; to “GAAUUAAACAUCAAAAAUUCUUAAUUAAAUUUUUAUGUUAGUUC [K10-as]”, 0.08 µM. Turning to “CUUGAUUGUAUUUUUAAAUUAAUUCUUAAAAACUACAAAUUAAG [K10 TLS (FAM)]”, the Kd in data set [2] is over 5 µM; in data set [3], 0.162 µM.

What is called IC50 is the concentration that inhibits the measured activity by half. A high value points to weaker potency. The term Kd denotes the free concentration of one partner at which half of the binding sites on the other are occupied at equilibrium, for simple one-to-one binding.
